# From the supplement of paper PMC10849652
# Chains of the proteins cited; added tags and fusions are not shown. Lines headed by an entry give the natural chain unless they say otherwise; changes in a name come on top.
# UniProt Q9UK73, whole entry, looked up: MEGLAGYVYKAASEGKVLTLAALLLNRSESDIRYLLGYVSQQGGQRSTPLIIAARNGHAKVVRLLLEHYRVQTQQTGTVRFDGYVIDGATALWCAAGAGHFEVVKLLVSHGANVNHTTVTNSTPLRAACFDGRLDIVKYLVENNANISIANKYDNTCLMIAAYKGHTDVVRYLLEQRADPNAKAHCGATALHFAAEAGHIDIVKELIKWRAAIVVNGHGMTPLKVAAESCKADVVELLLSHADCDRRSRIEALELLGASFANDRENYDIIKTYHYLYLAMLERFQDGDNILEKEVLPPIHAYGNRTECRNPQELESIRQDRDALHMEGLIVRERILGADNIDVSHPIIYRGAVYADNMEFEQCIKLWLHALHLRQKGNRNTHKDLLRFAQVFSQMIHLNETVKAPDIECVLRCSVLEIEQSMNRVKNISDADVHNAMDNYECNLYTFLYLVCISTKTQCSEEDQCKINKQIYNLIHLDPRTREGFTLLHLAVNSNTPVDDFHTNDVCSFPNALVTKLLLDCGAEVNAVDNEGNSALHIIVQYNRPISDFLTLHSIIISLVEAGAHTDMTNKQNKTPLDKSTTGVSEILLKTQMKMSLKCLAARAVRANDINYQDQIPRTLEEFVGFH
# UniProt Q6UN15: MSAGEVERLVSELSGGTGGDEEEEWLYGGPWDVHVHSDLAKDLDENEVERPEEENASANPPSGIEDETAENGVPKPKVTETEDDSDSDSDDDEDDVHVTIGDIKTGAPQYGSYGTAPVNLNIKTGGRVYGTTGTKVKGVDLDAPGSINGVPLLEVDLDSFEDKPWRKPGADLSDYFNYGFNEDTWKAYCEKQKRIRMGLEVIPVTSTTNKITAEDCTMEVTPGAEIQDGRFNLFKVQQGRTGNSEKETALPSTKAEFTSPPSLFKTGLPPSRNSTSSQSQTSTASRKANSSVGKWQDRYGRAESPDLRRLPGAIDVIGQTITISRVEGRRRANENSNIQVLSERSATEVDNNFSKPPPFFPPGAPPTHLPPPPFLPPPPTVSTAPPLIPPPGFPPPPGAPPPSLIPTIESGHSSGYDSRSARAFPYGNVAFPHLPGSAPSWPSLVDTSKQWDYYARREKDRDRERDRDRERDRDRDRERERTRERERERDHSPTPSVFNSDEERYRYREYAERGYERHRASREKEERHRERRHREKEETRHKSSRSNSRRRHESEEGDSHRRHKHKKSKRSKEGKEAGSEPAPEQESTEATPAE
# UniProt Q00688: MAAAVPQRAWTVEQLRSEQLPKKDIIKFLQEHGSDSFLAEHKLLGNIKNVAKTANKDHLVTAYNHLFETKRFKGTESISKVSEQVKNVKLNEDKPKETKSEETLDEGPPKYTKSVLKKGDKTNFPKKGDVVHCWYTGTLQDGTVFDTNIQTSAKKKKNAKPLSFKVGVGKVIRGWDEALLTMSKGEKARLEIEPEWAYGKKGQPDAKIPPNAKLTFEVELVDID
# UniProt Q9Y3I1: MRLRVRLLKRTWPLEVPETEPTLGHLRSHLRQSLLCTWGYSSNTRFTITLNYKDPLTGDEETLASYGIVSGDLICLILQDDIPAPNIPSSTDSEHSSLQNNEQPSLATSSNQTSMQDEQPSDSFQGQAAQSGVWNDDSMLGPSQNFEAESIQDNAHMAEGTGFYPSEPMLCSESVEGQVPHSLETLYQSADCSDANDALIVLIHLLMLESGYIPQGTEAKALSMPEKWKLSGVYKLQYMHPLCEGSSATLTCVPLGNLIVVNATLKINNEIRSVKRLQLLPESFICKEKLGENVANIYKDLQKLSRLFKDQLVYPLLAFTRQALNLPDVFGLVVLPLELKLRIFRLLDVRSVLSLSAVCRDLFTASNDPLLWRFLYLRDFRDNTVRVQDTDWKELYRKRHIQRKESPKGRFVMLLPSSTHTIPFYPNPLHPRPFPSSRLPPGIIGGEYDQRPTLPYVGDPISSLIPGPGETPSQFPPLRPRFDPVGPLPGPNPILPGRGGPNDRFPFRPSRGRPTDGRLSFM
# UniProt Q6P4F2: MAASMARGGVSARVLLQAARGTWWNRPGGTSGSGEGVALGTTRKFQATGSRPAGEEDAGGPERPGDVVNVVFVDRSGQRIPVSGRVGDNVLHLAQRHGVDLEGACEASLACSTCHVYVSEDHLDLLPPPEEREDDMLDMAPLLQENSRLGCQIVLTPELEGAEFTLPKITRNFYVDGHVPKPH
# UniProt Q8TB52: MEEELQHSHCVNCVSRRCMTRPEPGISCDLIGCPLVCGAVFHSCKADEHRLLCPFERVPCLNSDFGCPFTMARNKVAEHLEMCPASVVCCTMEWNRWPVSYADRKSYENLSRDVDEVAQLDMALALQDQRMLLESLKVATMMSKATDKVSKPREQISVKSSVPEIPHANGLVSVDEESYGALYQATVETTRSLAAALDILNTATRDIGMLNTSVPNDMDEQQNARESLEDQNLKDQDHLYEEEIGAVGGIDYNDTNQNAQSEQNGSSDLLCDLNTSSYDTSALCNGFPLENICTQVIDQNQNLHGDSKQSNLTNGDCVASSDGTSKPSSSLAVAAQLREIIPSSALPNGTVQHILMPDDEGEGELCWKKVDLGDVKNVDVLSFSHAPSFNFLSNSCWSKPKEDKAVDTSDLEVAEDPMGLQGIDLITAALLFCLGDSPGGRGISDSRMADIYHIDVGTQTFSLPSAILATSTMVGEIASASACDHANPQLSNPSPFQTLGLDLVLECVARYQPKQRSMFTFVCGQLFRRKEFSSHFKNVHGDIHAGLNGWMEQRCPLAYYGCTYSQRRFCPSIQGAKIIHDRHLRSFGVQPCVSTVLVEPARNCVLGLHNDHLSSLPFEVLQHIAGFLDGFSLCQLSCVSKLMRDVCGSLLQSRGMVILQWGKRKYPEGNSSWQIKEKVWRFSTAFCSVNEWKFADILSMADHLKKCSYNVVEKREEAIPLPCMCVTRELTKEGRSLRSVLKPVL
# UniProt P22830: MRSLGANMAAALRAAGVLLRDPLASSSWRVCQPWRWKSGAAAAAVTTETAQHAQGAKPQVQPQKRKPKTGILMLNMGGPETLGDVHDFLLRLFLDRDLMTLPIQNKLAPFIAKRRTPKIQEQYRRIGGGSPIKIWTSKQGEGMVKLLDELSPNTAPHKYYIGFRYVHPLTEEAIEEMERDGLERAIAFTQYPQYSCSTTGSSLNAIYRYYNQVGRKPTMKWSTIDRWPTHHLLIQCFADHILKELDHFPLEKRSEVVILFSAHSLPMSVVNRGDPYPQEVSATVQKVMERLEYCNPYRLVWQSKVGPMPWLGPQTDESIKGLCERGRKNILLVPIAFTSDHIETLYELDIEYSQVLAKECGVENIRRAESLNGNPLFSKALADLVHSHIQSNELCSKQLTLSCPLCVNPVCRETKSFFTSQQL
# UniProt Q14320: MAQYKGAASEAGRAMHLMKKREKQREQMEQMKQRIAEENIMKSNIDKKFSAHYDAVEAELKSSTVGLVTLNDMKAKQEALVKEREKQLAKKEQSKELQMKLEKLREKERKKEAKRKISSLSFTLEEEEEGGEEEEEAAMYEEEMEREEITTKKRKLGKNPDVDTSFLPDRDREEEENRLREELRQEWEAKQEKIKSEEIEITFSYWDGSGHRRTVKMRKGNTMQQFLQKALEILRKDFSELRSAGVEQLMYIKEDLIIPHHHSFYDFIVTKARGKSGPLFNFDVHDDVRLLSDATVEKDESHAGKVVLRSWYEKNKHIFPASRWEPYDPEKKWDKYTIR
# UniProt P22087: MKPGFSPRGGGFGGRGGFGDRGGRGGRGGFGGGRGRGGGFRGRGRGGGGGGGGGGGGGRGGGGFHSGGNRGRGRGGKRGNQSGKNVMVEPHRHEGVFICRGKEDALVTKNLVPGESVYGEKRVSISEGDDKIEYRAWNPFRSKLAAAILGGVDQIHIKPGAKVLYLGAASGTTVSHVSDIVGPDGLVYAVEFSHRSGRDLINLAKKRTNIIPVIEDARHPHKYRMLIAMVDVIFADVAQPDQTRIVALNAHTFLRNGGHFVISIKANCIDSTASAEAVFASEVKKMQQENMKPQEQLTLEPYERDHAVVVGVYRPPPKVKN
# UniProt Q9UK99: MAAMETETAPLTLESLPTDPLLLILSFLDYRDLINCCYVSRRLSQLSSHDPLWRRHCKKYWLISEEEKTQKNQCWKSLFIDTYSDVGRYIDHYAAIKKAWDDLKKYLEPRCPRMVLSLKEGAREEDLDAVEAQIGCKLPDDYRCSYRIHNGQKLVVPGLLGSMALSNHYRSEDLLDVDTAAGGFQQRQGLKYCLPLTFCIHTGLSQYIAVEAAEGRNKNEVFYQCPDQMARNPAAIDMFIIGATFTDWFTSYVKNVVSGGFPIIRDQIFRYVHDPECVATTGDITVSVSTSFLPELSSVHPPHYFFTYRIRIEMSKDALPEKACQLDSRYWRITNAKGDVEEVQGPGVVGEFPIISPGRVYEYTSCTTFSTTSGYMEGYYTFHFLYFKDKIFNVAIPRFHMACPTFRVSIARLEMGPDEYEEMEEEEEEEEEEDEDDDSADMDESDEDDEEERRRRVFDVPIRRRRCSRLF
# UniProt Q9UBU6: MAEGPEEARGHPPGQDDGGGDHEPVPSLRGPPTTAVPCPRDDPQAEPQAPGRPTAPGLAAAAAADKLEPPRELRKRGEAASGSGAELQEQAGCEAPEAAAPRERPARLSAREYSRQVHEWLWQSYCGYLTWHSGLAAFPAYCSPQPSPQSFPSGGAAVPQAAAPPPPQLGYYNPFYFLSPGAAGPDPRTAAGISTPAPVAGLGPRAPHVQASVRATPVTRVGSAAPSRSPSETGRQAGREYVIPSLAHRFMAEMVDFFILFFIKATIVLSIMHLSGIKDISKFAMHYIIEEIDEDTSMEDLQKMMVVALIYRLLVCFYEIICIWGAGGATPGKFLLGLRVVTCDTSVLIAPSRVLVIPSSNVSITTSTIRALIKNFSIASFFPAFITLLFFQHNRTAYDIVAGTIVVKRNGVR
# UniProt O95684: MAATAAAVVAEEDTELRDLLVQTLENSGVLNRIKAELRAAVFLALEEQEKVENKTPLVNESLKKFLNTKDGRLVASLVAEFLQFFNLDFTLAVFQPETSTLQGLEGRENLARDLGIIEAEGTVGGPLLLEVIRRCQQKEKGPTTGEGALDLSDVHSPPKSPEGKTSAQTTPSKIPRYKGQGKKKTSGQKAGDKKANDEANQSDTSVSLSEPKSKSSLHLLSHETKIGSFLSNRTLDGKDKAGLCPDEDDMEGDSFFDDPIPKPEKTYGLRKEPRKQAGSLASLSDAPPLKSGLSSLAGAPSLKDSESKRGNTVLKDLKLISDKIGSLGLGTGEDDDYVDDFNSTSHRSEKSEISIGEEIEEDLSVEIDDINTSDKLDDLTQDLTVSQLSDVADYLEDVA
# UniProt Q9NRD1: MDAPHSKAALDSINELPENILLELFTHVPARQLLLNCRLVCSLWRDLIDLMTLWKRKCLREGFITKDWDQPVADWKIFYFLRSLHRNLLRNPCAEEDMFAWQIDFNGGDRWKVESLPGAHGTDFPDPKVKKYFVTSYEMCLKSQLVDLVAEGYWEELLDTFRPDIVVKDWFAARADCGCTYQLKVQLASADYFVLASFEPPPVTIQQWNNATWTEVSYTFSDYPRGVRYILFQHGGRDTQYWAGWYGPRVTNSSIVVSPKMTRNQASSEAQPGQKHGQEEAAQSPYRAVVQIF
# UniProt Q9NSD9: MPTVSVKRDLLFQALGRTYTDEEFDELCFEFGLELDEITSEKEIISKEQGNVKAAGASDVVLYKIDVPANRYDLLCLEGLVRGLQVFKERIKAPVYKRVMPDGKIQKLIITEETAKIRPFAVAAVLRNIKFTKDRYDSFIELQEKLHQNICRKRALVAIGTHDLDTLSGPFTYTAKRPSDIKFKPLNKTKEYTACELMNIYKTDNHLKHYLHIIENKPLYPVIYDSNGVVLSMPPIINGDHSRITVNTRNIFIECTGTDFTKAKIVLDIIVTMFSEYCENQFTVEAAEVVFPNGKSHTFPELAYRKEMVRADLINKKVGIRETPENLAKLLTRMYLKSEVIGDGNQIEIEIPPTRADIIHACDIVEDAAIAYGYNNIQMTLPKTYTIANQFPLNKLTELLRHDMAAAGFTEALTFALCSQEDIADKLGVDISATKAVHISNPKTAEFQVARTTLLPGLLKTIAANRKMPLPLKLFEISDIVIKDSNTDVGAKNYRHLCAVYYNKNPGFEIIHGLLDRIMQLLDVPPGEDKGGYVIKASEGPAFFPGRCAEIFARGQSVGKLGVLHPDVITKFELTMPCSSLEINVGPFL
# UniProt Q9Y3D6: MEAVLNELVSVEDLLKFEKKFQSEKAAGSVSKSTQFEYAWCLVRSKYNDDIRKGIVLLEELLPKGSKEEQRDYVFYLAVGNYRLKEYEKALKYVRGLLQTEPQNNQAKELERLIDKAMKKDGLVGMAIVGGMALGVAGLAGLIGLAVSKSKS
# UniProt Q92520: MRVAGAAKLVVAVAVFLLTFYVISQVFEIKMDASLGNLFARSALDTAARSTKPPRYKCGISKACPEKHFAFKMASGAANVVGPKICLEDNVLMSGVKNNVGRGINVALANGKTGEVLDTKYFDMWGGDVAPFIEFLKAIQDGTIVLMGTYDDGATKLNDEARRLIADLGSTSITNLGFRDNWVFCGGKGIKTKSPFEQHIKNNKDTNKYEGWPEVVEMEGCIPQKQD
# The list shows a part of the results.
# Compound: Cn1cncc1[C@@](N)(c1ccc(Cl)cc1)c1ccc2c(c1)c(-c1cccc(Cl)c1)cc(=O)n2C [tipifarnib]
# Assay: log2 fold change, soluble protein after heating vs DMSO (PISA); higher = thermal stabilisation; K562 cells, 10 uM, 30 min; active = over 0.2 and 3.5 SD of the protein, either way, in both replicates (recomputed)
# How it was run: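 K562 cells (2×10^6 cells/mL) were treated with 10 μM compound for 30 min, and aliquots were heated for 3 min over 48°C-58°C. Pooled aliquots were extracted in PBS with 0.5% NP-40 at 4°C, and the supernatant after 21,000xg for 90 min was measured by TMTpro 16plex LC-MS/MS with channel sums equalised. Reported thermal stability, relative to control samples and from duplicates, is a log2 fold change.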
row,Target,log2 fold change
1,FBXO5 (UniProt Q9UKT4),inactive: -0.003
2,FEM1B (UniProt Q9UK73),inactive: 0.007
3,FKBP7 (UniProt Q9Y680),inactive: 0.027
4,FAM76B (UniProt Q5HYJ3),inactive: 0.017
5,FIP1L1 (UniProt Q6UN15),inactive: 0.083
6,FBXO22 (UniProt Q8NEZ5),inactive: -0.051
7,FAM91A1 (UniProt Q658Y4),inactive: -0.004
8,FKBP15 (UniProt Q5T1M5),inactive: -0.033
9,FKBP3 (UniProt Q00688),inactive: -0.01
10,FBXO7 (UniProt Q9Y3I1),inactive: 0.072
11,FDX2 (UniProt Q6P4F2),inactive: -0.02
12,FDFT1 (UniProt P37268),inactive: 0.089
13,FBXL20 (UniProt Q96IG2),inactive: -0.018
14,FKBPL (UniProt Q9UIM3),inactive: 0.01
15,FARS2 (UniProt O95363),inactive: 0.018
16,FBXO30 (UniProt Q8TB52),inactive: -0.014
17,FHL2 (UniProt Q14192),inactive: 0.02
18,FECH isoform 2 (UniProt P22830),inactive: 0.134
19,FAM50A (UniProt Q14320),inactive: -0.031
20,FBL (UniProt P22087),inactive: 0.301

# An excerpt of these results, as tab-separated lines:
row	Target	log2 fold change
2	FEM1B (UniProt Q9UK73)	inactive: 0.007
11	FDX2 (UniProt Q6P4F2)	inactive: -0.02

# Continued.

row,Target,log2 fold change
1,FBLL1 (UniProt A6NHQ2),inactive: 0.146
2,FBXO3 (UniProt Q9UK99),inactive: -0.007
3,FN3KRP (UniProt Q9HA64),inactive: 0
4,FLVCR1 (UniProt Q9Y5Y0),inactive: 0.033
5,FAM8A1 (UniProt Q9UBU6),inactive: 0.086
6,FGFR1OP (UniProt O95684),inactive: -0.051
7,FKBP14 (UniProt Q9NWM8),inactive: -0.13
8,FGF13 isoform 3 (UniProt Q92913),inactive: 0.065
9,FBXO6 (UniProt Q9NRD1),inactive: -0.021
10,FKBP2 (UniProt P26885),inactive: 0.024
11,FAM32A (UniProt Q9Y421),inactive: 0.056
12,FDPS (UniProt P14324),inactive: -0.258
13,FNBP4 isoform 2 (UniProt Q8N3X1),inactive: 0.058
14,FAM98B (UniProt Q52LJ0),inactive: -0.104
15,FARSB (UniProt Q9NSD9),inactive: -0.022
16,FAM98A (UniProt Q8NCA5),inactive: -0.008
17,FAU (UniProt P62861),inactive: 0.164
18,FIS1 (UniProt Q9Y3D6),inactive: -0.024
19,FAM3C (UniProt Q92520),inactive: 0.036
